Paper PMC10531313
No constants are given. Whether binding was seen depends on the method and setting. In cells and extracts the contact can be indirect. Where a sequence is shown, tags or fusion partners need not be part of it.

The chains behind the UniProt entries cited, without tags or fusion partners.
UniProt Q07157: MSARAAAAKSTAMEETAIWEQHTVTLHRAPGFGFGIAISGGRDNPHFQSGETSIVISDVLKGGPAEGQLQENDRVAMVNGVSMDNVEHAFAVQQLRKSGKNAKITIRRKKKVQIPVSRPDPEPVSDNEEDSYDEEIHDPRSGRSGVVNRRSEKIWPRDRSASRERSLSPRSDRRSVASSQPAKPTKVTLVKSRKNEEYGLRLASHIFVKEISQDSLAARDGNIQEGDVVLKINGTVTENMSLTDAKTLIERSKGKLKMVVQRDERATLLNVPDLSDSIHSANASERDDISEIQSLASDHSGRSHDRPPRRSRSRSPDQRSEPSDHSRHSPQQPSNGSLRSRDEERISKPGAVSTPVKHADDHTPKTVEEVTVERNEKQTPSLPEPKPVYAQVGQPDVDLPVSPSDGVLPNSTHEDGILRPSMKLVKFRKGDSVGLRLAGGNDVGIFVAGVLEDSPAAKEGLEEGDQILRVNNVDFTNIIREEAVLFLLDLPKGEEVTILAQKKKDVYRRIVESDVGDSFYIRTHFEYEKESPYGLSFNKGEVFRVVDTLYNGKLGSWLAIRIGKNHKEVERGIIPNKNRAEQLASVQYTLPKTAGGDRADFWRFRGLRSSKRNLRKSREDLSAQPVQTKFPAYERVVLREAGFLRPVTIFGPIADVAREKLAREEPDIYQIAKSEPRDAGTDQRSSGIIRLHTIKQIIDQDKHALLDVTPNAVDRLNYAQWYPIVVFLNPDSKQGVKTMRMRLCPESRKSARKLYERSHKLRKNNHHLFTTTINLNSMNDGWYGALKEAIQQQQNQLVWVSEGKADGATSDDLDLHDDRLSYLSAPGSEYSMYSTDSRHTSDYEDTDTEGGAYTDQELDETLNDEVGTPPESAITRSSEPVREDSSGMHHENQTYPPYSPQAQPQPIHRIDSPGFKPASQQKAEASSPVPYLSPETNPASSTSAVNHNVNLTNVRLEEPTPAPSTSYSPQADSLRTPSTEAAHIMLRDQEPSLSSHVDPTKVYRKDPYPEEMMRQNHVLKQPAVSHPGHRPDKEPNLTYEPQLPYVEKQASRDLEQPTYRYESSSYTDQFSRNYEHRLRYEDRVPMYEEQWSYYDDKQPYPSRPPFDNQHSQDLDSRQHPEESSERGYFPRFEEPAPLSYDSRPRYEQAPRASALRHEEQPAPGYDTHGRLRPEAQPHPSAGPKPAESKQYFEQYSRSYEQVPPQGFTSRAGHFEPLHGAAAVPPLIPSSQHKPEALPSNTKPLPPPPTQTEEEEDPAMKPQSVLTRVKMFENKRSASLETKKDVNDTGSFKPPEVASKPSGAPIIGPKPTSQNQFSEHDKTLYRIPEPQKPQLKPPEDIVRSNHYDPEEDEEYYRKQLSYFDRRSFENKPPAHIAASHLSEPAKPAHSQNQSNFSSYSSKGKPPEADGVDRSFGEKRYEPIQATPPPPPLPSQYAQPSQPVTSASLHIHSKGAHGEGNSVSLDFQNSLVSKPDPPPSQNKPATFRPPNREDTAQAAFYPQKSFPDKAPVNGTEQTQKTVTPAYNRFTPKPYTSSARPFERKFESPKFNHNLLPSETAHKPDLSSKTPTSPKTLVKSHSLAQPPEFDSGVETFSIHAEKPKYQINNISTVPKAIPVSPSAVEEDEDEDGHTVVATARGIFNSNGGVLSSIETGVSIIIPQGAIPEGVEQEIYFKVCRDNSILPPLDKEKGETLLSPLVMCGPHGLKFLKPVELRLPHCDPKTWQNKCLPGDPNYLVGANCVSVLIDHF

Biological target: T1, 3xFLAG-dyskerin (Flag-tagged full-length dyskerin) (human) (UniProt O60832)
T1 sequence: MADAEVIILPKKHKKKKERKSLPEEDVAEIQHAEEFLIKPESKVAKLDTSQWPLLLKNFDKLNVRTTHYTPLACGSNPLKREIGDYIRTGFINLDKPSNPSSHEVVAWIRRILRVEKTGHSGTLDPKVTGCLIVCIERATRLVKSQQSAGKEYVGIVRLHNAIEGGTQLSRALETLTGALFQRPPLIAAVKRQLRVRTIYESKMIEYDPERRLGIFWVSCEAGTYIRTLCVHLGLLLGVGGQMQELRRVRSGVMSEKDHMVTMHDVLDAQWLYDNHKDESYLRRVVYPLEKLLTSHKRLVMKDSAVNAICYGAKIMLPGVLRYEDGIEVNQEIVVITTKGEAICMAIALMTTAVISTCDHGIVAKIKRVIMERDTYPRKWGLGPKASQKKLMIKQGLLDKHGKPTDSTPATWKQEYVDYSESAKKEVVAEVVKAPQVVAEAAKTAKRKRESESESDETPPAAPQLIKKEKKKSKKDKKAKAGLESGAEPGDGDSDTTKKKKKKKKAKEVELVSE
Assay: co-IP; lysates (about 1 mg, RIPA buffer: 50 mM Tris pH 8, 150 mM NaCl, 5 mM EDTA, 1% NP40) of HEK and U2OS cells transfected with 3xFLAG-dyskerin, incubated overnight at 4 °C with ANTI-FLAG M2 Affinity Gel beads, washed with TBS, immunoblot; also after mild heat shock of the cells (45 °C 30 min, 30 min recovery)

membrane protein Zo-1 (from UniProt Q07157 1-1748)
binding: no binding
